# Source: PubChem BioAssay AID248 (DTP/NCI, 2004)
# The list does not hold the whole screen: it gathers tests that were run many times, whatever their T/C, doses with no T/C, and many T/C values between a quarter and a half above the control. Other doses and runs of a compound stand elsewhere. T/C is the treated group as % of the vehicle group. Some entries give survivors of the animals treated and no T/C: the source holds a T/C of zero for them, seemingly a mark for toxic or unscored doses. Some doses without a T/C left all or most animals alive at the check, yet need not have been tolerated: the source hardly ever lists a survival T/C far under the control, and the zero likely stands for such cases as well. Survivors were counted at the toxicity check, usually on the fifth day, unless a day is given; later deaths do not show. Schedules are NCI's codes, read here as Q, the interval in days (D) or hours (H), X, the number of doses. Some schedule codes hold Z or #, which are not explained here. For survival time, the PubChem record calls one and a half times the control and up active, and a quarter to a half above the control has no call in these data; cut-offs in other NCI protocols can differ. Some T/C values carry the count of animals alive at the toxicity check (mostly the fifth day); without a count, all were alive then. Some entries were tested several times; their values stand side by side, smallest first.
# Test system: L1210 leukemia ip in BDF1 mice, survival T/C
# Assay: NCI In Vivo Anticancer Drug Screen. Data for tumor model L1210 Leukemia (intraperitoneal) in B6D2F1 (BDF1) mice
# Details: T/C endpoint: mean survival time, higher T/C = longer survival
# [1] = dose: 400.0 mg/kg/injection, schedule: Q04DX003 (ip), vehicle: acetone
# [2] = dose: 100.0 mg/kg/injection, schedule: Q04DX003 (ip), vehicle: Klucel (hydroxypropylcellulose) (HPC)
# [3] = dose: 400.0 mg/kg/injection, schedule: Q04DX003 (ip), vehicle: saline
# [4] = dose: 100.0 mg/kg/injection, schedule: Q01DX001 (ip), vehicle: saline
# [5] = dose: 200.0 mg/kg/injection, schedule: Q01DX001 (ip), vehicle: saline
# [6] = dose: 400.0 mg/kg/injection, schedule: Q01DX001 (ip), vehicle: saline
# [7] = dose: 200.0 mg/kg/injection, schedule: Q04DX003 (ip), vehicle: Klucel (hydroxypropylcellulose) (HPC)
# [8] = dose: 400.0 mg/kg/injection, schedule: Q04DX003 (ip), vehicle: Klucel (hydroxypropylcellulose) (HPC)
# [9] = dose: 300.0 mg/kg/injection, schedule: Q01DX001 (ip), vehicle: other
# [10] = dose: 200.0 mg/kg/injection, schedule: Q04DX002 (ip), vehicle: Klucel (hydroxypropylcellulose) (HPC)
# [11] = dose: 400.0 mg/kg/injection, schedule: Q04DX002 (ip), vehicle: Klucel (hydroxypropylcellulose) (HPC)
structure (smiles),measurement,setting,value
Cc1ccc(NC(=O)N(CCCl)N=O)cc1Cl,T/C,"dose: 2.0 mg/kg/injection, schedule: Q01DX009 (ip), vehicle: carboxymethylcellulose (CMC)",138 % of control
same,T/C,"dose: 4.0 mg/kg/injection, schedule: Q01DX009 (ip), vehicle: carboxymethylcellulose (CMC)",141 and 141 % of control [5 of 6 alive]
same,T/C,"dose: 6.0 mg/kg/injection, schedule: Q01DX009 (ip), vehicle: carboxymethylcellulose (CMC)",132 % of control
same,T/C,"dose: 8.0 mg/kg/injection, schedule: Q01DX001 (ip), vehicle: carboxymethylcellulose (CMC)",125 % of control
same,T/C,"dose: 9.0 mg/kg/injection, schedule: Q01DX009 (ip), vehicle: carboxymethylcellulose (CMC)",143 % of control
same,T/C,"dose: 14.0 mg/kg/injection, schedule: Q01DX009 (ip), vehicle: carboxymethylcellulose (CMC)",137 % of control [4 of 6 alive]
same,T/C,"dose: 20.0 mg/kg/injection, schedule: Q01DX001 (ip), vehicle: carboxymethylcellulose (CMC)",132 % of control
same,T/C,"dose: 20.0 mg/kg/injection, schedule: Q01DX007 (ip), vehicle: carboxymethylcellulose (CMC)",141 % of control
same,T/C,"dose: 22.0 mg/kg/injection, schedule: Q01DX009 (ip), vehicle: carboxymethylcellulose (CMC)",140 % of control [5 of 6 alive]
same,T/C,"dose: 30.0 mg/kg/injection, schedule: Q01DX001 (ip), vehicle: carboxymethylcellulose (CMC)",127 % of control
same,survivor count,"dose: 50.0 mg/kg/injection, schedule: Q01DX009 (ip), vehicle: carboxymethylcellulose (CMC)",2 of 6
same,survivor count,"dose: 66.0 mg/kg/injection, schedule: Q01DX001 (ip), vehicle: other",4 of 6
same,T/C,"dose: 100.0 mg/kg/injection, schedule: Q01DX001 (ip), vehicle: carboxymethylcellulose (CMC)",128 % of control
same,survivor count,"dose: 100.0 mg/kg/injection, schedule: Q01DX001 (ip), vehicle: other",0 of 6
same,survivor count,"dose: 200.0 mg/kg/injection, schedule: Q01DX001 (ip), vehicle: carboxymethylcellulose (CMC)",2 of 4
same,survivor count,"dose: 400.0 mg/kg/injection, schedule: Q01DX001 (ip), vehicle: carboxymethylcellulose (CMC)",0 of 4
Nc1nc(SSc2nc(N)nc3c2ncn3C2CC(O)C(CO)O2)c2ncn(C3CC(O)C(CO)O3)c2n1 (configuration not stated),T/C,"dose: 0.25 mg/kg/injection, schedule: Q01DX009 (ip), vehicle: saline",132 % of control
same,T/C,"dose: 0.5 mg/kg/injection, schedule: Q01DX009 (ip), vehicle: saline",141 % of control
same,T/C,"dose: 150.0 mg/kg/injection, schedule: Q01DX001 (ip), vehicle: saline",132 % of control
same,T/C,"dose: 178.0 mg/kg/injection, schedule: Q01DX001 (ip), vehicle: saline",138 and 146 % of control
same,T/C,"dose: 267.0 mg/kg/injection, schedule: Q01DX001 (ip), vehicle: saline",127 % of control
same,T/C,"dose: 300.0 mg/kg/injection, schedule: Q01DX001 (ip), vehicle: saline",126 % of control
same,survivor count,"dose: 400.0 mg/kg/injection, schedule: Q01DX009 (ip), vehicle: saline",6 of 6
same,T/C,"dose: 600.0 mg/kg/injection, schedule: Q01DX001 (ip), vehicle: saline",145 % of control
Clc1nc2cc(Cl)c(Cl)cc2[nH]1,survivor count,[1],2 of 6
N#CSCc1ccc(CSC#N)c(Cl)c1,survivor count,"dose: 25.0 mg/kg/injection, schedule: Q04DX003 (ip), vehicle: Klucel (hydroxypropylcellulose) (HPC)",6 of 6
same,survivor count,"dose: 50.0 mg/kg/injection, schedule: Q04DX003 (ip), vehicle: Klucel (hydroxypropylcellulose) (HPC)",5 of 6
same,survivor count,[2],0 of 6
O=C(Nc1cccc(C(F)(F)F)c1)Oc1ccccc1F,survivor count,"dose: 400.0 mg/kg/injection, schedule: Q01DX009 (ip), vehicle: Klucel (hydroxypropylcellulose) (HPC)",5 of 6
C1=C(N2CCOCC2)CCC(N2CCOCC2)=C1,survivor count,[3],6 of 6
C1CCC2(CC1)CCNCC2,survivor count,[4],1 of 4
same,survivor count,[5],0 of 4
same,survivor count,[6],0 of 4
O=S(=O)(c1ccc(Cl)cc1)C(F)F,survivor count,[2],6 of 6
same,survivor count,[7],3 of 6
same,survivor count,[8],0 of 6
Cc1nccc2ccsc12,survivor count,[9],2 of 6
O=C(Nc1ccc(Cl)cc1)Oc1c(Cl)cc(S(=O)(=O)F)cc1Cl,survivor count,"dose: 200.0 mg/kg/injection, schedule: Q01DX009 (ip), vehicle: Klucel (hydroxypropylcellulose) (HPC)",0 of 3
same,survivor count,[10],3 of 3
same,survivor count,[11],2 of 3
CN(Cc1cnc2nc(N)nc(N)c2n1)c1ccc(C(=O)NC(CCC(=O)O)C(=O)O)c(Cl)c1Cl (configuration not stated),T/C,"dose: 6.25 mg/kg/injection, schedule: Q01DX009 (ip), vehicle: sodium bicarbonate",125 % of control
CN(C)/N=C\c1ccc([N+](C)(C)C)cc1,survivor count,[2],2 of 3
same,survivor count,[7],0 of 3
same,survivor count,[8],0 of 3
CC(=O)Nc1ccc2ccccc2c1-c1c(NC(C)=O)ccc2ccccc12,survivor count,"dose: 100.0 mg/kg/injection, schedule: Q04DX002 (ip), vehicle: saline with Tween-80",3 of 3
CCc1ccc(C2=C(O)C(=O)C(c3ccccc3)=C(O)C2=O)cc1,survivor count,"dose: 38.0 mg/kg/injection, schedule: Q01DX Z (ip), vehicle: carboxymethylcellulose (CMC)",1 of 6
same,T/C,"dose: 50.0 mg/kg/injection, schedule: Q01DX009 (ip), vehicle: acetone",127 % of control
same,survivor count,"dose: 57.0 mg/kg/injection, schedule: Q01DX Z (ip), vehicle: carboxymethylcellulose (CMC)",1 of 6
same,survivor count,"dose: 75.0 mg/kg/injection, schedule: Q01DX009 (ip), vehicle: saline",2 of 6
same,survivor count,"dose: 85.0 mg/kg/injection, schedule: Q01DX Z (ip), vehicle: carboxymethylcellulose (CMC)",0 of 6
N#CC(C#N)c1ccc(C(C#N)C#N)cc1,survivor count,[6],0 of 4
O=C1C(N2CCOCC2)=Cc2cccc3cccc1c23,survivor count,"dose: 400.0 mg/kg/injection, schedule: Q01DX009 (ip), vehicle: saline with Tween-80",2 of 6
same,survivor count,"dose: 400.0 mg/kg/injection, schedule: Q04DX003 (ip), vehicle: saline with Tween-80",0 of 6
CC(C)C1=CC23CCC4C(C)(C(=O)O)CCCC4(C)C2CC1C1C(=O)N(CCCN(C)C)C(=O)C13 (configuration not stated),survivor count,[9],0 of 6
CCCCCCCCCCCCCCCCCC1=NCCN1,survivor count,"dose: 25.0 mg/kg/injection, schedule: Q01DX009 (ip), vehicle: Klucel (hydroxypropylcellulose) (HPC)",6 of 6
same,survivor count,"dose: 50.0 mg/kg/injection, schedule: Q01DX009 (ip), vehicle: Klucel (hydroxypropylcellulose) (HPC)",6 of 6
same,survivor count,"dose: 100.0 mg/kg/injection, schedule: Q01DX009 (ip), vehicle: Klucel (hydroxypropylcellulose) (HPC)",5 of 6
same,survivor count,[10],3 of 3
same,survivor count,[11],2 of 3
CC[N+](CC)(CC)CCOc1cccc(OCC[N+](CC)(CC)CC)c1OCC[N+](CC)(CC)CC,survivor count,"dose: 20.0 mg/kg/injection, schedule: Q01DX001 (ip), vehicle: saline",0 of 6
same,survivor count,"dose: 40.0 mg/kg/injection, schedule: Q01DX001 (ip), vehicle: saline",0 of 6
same,survivor count,"dose: 50.0 mg/kg/injection, schedule: Q01DX001 (ip), vehicle: saline",0 of 4
same,survivor count,"dose: 80.0 mg/kg/injection, schedule: Q01DX001 (ip), vehicle: saline",0 of 6
same,survivor count,[4],0 of 4
same,survivor count,[5],0 of 4
same,survivor count,[6],0 of 4
CCCCCC/C=C\[N+](=O)[O-],survivor count,"dose: 100.0 mg/kg/injection, schedule: Q01DX001 (ip), vehicle: saline with Tween-80",0 of 6
same,survivor count,"dose: 200.0 mg/kg/injection, schedule: Q01DX001 (ip), vehicle: saline with Tween-80",0 of 6
C#CCOCCC(=O)O,survivor count,[1],0 of 6
O=C(Nc1ccc(Br)cc1C(=O)O)c1cccc(Br)c1,survivor count,"dose: 200.0 mg/kg/injection, schedule: Q01DX001 (ip), vehicle: other",0 of 6
same,survivor count,"dose: 400.0 mg/kg/injection, schedule: Q01DX001 (ip), vehicle: other",0 of 6
S=P(c1ccccc1)(N1CCCCC1)N1CCCCC1,survivor count,[3],6 of 6
